Results are given in words; binding and its absence hold for the method and conditions named. In cells and extracts the contact can be indirect. Binding can be weak; no strength is given.
Legend:
[1] = molecular target: T1, melanoma cell adhesion molecule (MCAM) (mouse (endogenous in bEnd.3)) (UniProt Q8R2Y2); assay: co-IP; wild-type bEnd cells (Wt-End, no MTP); RIPA lysate; IP with MCAM antibody, Western blot with antibody to p38, GSK3β or MCAM
T1 sequence: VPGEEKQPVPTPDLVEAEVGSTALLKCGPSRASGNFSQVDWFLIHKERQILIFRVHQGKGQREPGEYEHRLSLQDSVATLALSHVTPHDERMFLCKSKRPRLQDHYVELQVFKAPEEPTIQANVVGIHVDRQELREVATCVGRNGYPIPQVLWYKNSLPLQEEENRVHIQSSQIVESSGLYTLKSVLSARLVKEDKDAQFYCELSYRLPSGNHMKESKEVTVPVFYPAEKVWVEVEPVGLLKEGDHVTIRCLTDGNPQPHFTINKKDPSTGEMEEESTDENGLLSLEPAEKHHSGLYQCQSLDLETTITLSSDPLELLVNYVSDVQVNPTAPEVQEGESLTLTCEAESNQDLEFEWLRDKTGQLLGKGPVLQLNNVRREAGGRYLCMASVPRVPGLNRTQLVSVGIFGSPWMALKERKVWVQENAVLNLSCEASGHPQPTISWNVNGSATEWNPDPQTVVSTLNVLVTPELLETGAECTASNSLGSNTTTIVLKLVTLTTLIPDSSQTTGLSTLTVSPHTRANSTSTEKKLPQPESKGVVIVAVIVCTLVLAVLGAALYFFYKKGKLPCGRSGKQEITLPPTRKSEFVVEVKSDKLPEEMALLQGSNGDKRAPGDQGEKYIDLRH

[2] = molecular target: T1, melanoma cell adhesion molecule (MCAM) (mouse (endogenous in bEnd.3)); assay: co-IP; bEnd cells transfected with full-length MTP carrying 6His and c-Myc tags (MTP-expres End); RIPA lysate; IP with MCAM antibody, Western blot with antibody to p38, GSK3β or MCAM

binding [1]: binds
binding [2]: binds
Substance: p38MAPK (mouse (endogenous in bEnd.3))
